± gives the standard deviation of the averaged measurements. Values are relative to the signal before dosing, not to a vehicle control; the signal also falls without drug.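 Labels refer to human fibroblasts, largely primary: uterine (C12385, HUF), lung (H6013), bone (Hs27A), adrenal (HADF), skin (WS1), plus mammary HMF and breast cancer-associated Hs343T. Cancer lines are basal-like or mesenchymal-like triple-negative breast cancer. The paper counts as hits responses shifting over 3x the replicate standard deviation. The tissue of the other fibroblasts is not given here.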
Test system: MDAMB231
Experiment: relative JC-1 red fluorescence (viability) vs pre-drug, coculture with fibroblast (fraction); higher = more viable cancer cells
Details: 100 µM
Experimental: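 JC-1 labelled TNBC cells cocultured 1:1 (1,500 cells each) with CellTrace Violet stained primary or stromal fibroblasts in 384-well plates in FluoroBrite medium, treated with one of 42 anticancer drugs at 0.1, 1, 10 or 100 uM. JC-1 red fluorescence (mitochondrial integrity in cancer cells only) was read by plate reader every 8 h for 72 h. Values are normalised to each well's pre-drug value. The stock of one drug was tenfold lower, so its dose labels may be too high.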

O=NN(CCCl)C(=O)NC1CCCCC1 [Lomustine]
relative JC-1 red fluorescence
Details | 8 h | 16 h | 24 h | 32 h | 40 h | 48 h | 56 h | 64 h | 72 h
coculture fibroblast: C12385 | 0.723 ± 0.024 | 0.724 ± 0.04 | 0.636 ± 0.078 | 0.621 ± 0.07 | 0.546 ± 0.068 | 0.531 ± 0.086 | 0.486 ± 0.082 | 0.472 ± 0.077 | 0.459 ± 0.087
coculture fibroblast: H6013 | 0.846 ± 0.018 | 0.777 ± 0.044 | 0.73 ± 0.035 | 0.71 ± 0.027 | 0.683 ± 0.028 | 0.67 ± 0.019 | 0.657 ± 0.014 | 0.6335 ± 0.0024 | 0.5979 ± 0.002
coculture fibroblast: H6019 | 0.819 ± 0.08 | 0.733 ± 0.077 | 0.677 ± 0.07 | 0.64 ± 0.072 | 0.591 ± 0.076 | 0.55 ± 0.075 | 0.518 ± 0.081 | 0.506 ± 0.077 | 0.477 ± 0.067
coculture fibroblast: H6076 | 0.835 ± 0.041 | 0.755 ± 0.064 | 0.711 ± 0.09 | 0.703 ± 0.087 | 0.684 ± 0.086 | 0.66 ± 0.079 | 0.665 ± 0.09 | 0.661 ± 0.086 | 0.661 ± 0.087
coculture fibroblast: H6231 | 0.951 ± 0.014 | 0.854 ± 0.027 | 0.815 ± 0.025 | 0.765 ± 0.033 | 0.699 ± 0.041 | 0.658 ± 0.049 | 0.604 ± 0.051 | 0.575 ± 0.054 | 0.549 ± 0.058
coculture fibroblast: HADF | 0.8302 ± 0.0036 | 0.783 ± 0.032 | 0.743 ± 0.033 | 0.717 ± 0.025 | 0.695 ± 0.033 | 0.659 ± 0.033 | 0.639 ± 0.023 | 0.633 ± 0.018 | 0.59 ± 0.015
coculture fibroblast: HCFa | 0.874 ± 0.012 | 0.8243 ± 0.008 | 0.7894 ± 0.0057 | 0.758 ± 0.018 | 0.719 ± 0.019 | 0.675 ± 0.021 | 0.648 ± 0.031 | 0.617 ± 0.035 | 0.566 ± 0.039
coculture fibroblast: HCPF | 0.892 ± 0.014 | 0.81 ± 0.0089 | 0.764 ± 0.023 | 0.739 ± 0.04 | 0.685 ± 0.037 | 0.65 ± 0.044 | 0.605 ± 0.049 | 0.563 ± 0.049 | 0.54 ± 0.042
coculture fibroblast: HHSteC | 0.8867 ± 0.0058 | 0.846 ± 0.0092 | 0.799 ± 0.012 | 0.759 ± 0.013 | 0.721 ± 0.02 | 0.68217 ± 0.00045 | 0.638 ± 0.011 | 0.615 ± 0.018 | 0.57 ± 0.025
coculture fibroblast: HMF | 0.89 ± 0.033 | 0.832 ± 0.041 | 0.782 ± 0.042 | 0.747 ± 0.028 | 0.703 ± 0.036 | 0.659 ± 0.033 | 0.622 ± 0.032 | 0.601 ± 0.035 | 0.584 ± 0.049
coculture fibroblast: HPFa | 0.924 ± 0.022 | 0.889 ± 0.017 | 0.8394 ± 0.0012 | 0.7936 ± 0.0067 | 0.772 ± 0.0026 | 0.73 ± 0.011 | 0.674 ± 0.017 | 0.643 ± 0.02 | 0.594 ± 0.018
coculture fibroblast: HUF | 0.819 ± 0.015 | 0.723 ± 0.016 | 0.729 ± 0.018 | 0.64 ± 0.013 | 0.575 ± 0.012 | 0.558 ± 0.02 | 0.515 ± 0.024 | 0.507 ± 0.03 | 0.5 ± 0.018
coculture fibroblast: Hs5 | 0.8543 ± 0.0052 | 0.773 ± 0.016 | 0.74 ± 0.007 | 0.7 ± 0.0053 | 0.6632 ± 0.0013 | 0.615 ± 0.0076 | 0.5925 ± 0.0017 | 0.5728 ± 0.0018 | 0.567 ± 0.0055
coculture fibroblast: Hs27A | 0.892 ± 0.012 | 0.8241 ± 0.0017 | 0.7881 ± 0.0037 | 0.7558 ± 0.0014 | 0.7082 ± 0.0037 | 0.651 ± 0.031 | 0.647 ± 0.022 | 0.633 ± 0.024 | 0.586 ± 0.038
coculture fibroblast: Hs343T | 0.832 ± 0.022 | 0.763 ± 0.015 | 0.725 ± 0.0086 | 0.703 ± 0.01 | 0.6641 ± 0.006 | 0.6308 ± 0.0024 | 0.5858 ± 0.0026 | 0.5687 ± 0.0047 | 0.538 ± 0.018
coculture fibroblast: WS1 | 0.716 ± 0.049 | 0.67 ± 0.073 | 0.644 ± 0.085 | 0.593 ± 0.099 | 0.563 ± 0.12 | 0.541 ± 0.11 | 0.507 ± 0.12 | 0.503 ± 0.11 | 0.48 ± 0.11

Source: the supplement of paper PMC6078165
